Numbering of substitutions follows the chain as printed. Construct, isoform or probe ends are uncertain for at least one entry. Results from cells or extracts need not show a direct contact. Where a protein sequence is shown, tags need not be part of it.
What was measured:
[1] = molecular target: T1, LHX4 V75I (UniProt Q969G2); assay: EMSA; conditions: similar or slightly higher efficiency than WT; LightShift chemiluminescent EMSA kit (Pierce), per manufacturer; pH and temperature not stated; protein in a lysate after overexpression
T1 sequence (looked up, limits assumed): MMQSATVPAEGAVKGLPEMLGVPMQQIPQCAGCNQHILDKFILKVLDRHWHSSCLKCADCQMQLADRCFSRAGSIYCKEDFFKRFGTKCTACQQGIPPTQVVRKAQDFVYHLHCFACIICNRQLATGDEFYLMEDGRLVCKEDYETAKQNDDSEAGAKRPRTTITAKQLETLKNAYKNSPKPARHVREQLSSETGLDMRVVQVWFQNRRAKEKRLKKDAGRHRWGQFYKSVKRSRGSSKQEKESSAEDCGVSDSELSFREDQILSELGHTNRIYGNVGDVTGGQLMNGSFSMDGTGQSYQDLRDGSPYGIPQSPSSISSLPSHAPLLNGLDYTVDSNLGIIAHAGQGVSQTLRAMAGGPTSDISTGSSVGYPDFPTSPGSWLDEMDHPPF

[2] = molecular target: T2, LHX4 wild type (UniProt Q969G2); assay: EMSA; conditions: competed by 200x cold competitor; LightShift chemiluminescent EMSA kit (Pierce), per manufacturer; pH and temperature not stated; protein in a lysate after overexpression
T2 sequence (looked up, limits assumed): T1 sequence (looked up, limits assumed) with I75V

Question: Does “GTATGAATCATTAATTGACAACATATTTTC (double strand) [LHX4 EMSA probe]” bind [1]?
Answer: binds

Question: Does “GTATGAATCATTAATTGACAACATATTTTC (double strand) [LHX4 EMSA probe]” bind [2]?
Answer: binds
